This assay deals with ABCA1MM EYFP (UniProt P41233). Nature of the assay: native gel or EMSA; Deriphat native PAGE of lysates (1% α-DM, 150 mM NaCl, 50 mM TrisHCl pH 7.4) of HeLa cells co-transfected with MEGF10 and ABCA1 or ABCA1MM, 4°C; blots with anti-ABCA1 891.3 and anti-GFP. (In general: A gel shift assay detects complexes by their altered migration in electrophoresis.)

Protein sequences, listed by entry. Tags and fused reporters are not part of them. Lines headed by an entry give the natural chain unless they say otherwise; changes in a name come on top. Chains listed by the source or under a name are the forms on record and can include a tag or linker.
UniProt P41233: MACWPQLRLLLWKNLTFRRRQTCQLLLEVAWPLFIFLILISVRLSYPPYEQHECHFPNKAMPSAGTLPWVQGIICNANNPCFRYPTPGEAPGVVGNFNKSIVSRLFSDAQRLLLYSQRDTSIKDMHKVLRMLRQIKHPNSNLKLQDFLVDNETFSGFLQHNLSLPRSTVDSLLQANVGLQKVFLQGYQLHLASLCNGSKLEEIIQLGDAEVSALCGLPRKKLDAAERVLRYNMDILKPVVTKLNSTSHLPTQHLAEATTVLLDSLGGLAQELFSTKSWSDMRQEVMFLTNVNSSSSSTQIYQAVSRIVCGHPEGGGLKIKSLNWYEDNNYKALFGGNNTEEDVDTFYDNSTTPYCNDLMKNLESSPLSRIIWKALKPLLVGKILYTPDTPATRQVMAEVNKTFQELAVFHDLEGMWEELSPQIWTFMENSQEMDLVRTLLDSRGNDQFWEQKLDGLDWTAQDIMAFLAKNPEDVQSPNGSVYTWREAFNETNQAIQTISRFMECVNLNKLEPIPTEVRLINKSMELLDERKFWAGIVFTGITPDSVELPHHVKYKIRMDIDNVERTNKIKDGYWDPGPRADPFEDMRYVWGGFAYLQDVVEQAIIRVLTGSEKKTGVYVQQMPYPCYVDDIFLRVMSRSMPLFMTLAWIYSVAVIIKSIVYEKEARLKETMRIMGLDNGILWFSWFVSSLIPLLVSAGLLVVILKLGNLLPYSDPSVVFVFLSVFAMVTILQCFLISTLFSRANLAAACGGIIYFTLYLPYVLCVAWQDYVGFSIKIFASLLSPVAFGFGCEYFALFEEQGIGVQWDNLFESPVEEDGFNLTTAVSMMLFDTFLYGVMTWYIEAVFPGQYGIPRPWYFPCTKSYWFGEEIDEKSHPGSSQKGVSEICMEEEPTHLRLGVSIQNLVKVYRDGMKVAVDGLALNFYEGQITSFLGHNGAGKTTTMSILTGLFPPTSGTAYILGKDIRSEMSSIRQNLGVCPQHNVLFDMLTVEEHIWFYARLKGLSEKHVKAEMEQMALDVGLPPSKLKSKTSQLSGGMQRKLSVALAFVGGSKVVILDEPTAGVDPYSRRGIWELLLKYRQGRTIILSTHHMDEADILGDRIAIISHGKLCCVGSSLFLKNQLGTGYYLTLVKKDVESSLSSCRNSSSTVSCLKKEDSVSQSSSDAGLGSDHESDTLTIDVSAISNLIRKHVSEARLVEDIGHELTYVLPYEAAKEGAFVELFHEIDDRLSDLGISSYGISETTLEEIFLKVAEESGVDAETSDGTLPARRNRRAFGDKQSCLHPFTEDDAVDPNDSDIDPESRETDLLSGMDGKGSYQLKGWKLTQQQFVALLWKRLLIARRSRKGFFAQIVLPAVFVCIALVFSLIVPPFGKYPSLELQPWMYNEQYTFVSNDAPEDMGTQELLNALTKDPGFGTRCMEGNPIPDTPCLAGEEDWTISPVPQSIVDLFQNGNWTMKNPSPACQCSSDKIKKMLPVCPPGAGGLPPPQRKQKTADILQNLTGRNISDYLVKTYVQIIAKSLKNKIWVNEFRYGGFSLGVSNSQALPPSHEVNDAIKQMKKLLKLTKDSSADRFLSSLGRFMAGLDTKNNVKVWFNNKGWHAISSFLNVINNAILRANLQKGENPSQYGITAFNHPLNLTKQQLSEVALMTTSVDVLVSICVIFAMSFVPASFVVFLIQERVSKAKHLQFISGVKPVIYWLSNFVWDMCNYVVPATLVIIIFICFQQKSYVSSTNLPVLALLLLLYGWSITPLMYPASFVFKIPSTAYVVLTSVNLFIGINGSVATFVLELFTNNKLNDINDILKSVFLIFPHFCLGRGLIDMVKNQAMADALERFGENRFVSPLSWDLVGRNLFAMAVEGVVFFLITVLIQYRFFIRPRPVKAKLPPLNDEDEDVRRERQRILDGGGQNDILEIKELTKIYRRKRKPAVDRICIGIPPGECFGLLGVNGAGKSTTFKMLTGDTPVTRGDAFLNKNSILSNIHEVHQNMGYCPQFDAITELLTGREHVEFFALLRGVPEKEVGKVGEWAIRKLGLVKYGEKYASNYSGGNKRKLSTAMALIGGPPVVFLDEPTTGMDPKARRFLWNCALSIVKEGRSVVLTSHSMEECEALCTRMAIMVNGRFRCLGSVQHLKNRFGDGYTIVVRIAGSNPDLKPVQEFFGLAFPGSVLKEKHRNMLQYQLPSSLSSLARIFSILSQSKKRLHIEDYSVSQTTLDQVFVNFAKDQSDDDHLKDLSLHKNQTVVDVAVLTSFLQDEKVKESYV
ABCA1MM EYFP (P41233, form named): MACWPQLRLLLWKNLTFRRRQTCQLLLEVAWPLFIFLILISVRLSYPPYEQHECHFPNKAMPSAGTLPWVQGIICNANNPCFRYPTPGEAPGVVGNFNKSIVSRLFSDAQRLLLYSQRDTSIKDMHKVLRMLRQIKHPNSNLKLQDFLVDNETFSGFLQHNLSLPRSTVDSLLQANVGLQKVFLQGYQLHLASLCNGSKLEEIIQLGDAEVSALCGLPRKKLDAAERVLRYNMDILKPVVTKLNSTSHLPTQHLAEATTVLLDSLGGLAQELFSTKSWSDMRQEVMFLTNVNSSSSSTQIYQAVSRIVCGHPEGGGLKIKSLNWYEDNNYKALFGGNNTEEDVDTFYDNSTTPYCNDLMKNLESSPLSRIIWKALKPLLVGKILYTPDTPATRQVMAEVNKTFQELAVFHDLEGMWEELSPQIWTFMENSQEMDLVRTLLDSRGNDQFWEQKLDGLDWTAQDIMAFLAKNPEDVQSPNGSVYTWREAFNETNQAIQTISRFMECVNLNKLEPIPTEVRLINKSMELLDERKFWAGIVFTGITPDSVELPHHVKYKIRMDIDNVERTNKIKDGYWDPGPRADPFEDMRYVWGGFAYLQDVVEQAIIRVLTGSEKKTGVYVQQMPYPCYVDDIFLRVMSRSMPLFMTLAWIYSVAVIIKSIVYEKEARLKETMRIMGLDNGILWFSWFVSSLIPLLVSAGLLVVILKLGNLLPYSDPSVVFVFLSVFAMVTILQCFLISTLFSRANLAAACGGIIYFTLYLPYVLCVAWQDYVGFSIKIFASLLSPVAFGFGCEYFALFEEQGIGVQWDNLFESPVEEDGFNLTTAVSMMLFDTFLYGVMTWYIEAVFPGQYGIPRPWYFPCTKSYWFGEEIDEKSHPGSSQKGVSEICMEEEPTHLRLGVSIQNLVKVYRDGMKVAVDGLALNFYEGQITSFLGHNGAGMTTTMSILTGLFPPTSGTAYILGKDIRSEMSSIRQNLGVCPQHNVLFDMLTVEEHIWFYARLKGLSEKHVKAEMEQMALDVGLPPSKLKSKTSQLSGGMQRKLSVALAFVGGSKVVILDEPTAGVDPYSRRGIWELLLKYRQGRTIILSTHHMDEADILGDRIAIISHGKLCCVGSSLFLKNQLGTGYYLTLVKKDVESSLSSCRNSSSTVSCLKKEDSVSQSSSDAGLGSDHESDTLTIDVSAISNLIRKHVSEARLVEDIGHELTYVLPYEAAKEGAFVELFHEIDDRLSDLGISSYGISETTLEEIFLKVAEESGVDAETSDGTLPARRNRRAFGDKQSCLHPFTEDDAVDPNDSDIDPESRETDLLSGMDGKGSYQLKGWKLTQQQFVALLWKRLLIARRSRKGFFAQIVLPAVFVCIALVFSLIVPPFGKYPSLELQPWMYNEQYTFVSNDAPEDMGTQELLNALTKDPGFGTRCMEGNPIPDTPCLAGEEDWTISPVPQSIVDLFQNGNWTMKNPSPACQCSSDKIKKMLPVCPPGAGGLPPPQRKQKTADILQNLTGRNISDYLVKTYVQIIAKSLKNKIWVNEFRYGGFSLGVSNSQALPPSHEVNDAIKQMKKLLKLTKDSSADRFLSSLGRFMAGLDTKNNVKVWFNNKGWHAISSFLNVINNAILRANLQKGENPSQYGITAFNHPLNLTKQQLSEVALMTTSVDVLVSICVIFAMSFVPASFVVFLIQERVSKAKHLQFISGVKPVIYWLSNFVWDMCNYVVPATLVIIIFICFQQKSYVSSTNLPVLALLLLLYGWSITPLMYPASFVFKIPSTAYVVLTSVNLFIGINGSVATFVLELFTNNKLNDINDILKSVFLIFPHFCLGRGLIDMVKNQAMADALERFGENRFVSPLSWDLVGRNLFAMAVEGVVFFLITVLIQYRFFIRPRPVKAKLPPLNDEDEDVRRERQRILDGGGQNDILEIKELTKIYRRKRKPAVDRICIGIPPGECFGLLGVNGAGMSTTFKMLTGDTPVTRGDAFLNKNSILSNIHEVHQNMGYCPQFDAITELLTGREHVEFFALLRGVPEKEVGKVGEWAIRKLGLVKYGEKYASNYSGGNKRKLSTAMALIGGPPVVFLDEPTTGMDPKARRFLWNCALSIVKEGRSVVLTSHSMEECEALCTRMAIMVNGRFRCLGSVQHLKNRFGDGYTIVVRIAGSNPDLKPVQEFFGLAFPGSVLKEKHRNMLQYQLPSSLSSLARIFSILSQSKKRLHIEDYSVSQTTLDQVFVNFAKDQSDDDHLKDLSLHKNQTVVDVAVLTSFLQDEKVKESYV

Results are given in words; binding and its absence hold for the method and conditions named. Some results given as binding are weak or reduced against the parent protein; the word gives no strength.

Turning to “ABCA1MM EYFP (from UniProt P41233 1-2261)”, the binding entry is listed as “binds”.

For the origin of these results see article PMC1762421.
